# Some of the results follow.
# B1: DC-Sign-R (Homo sapiens), Q9H2X3 (protein)
# chain: MSDSKEPRVQQLGLLEEDPTTSGIRLFPRDFQFQQIHGHKSSTGCLGHGALVLQLLSFMLLAGVLVAILVQVSKVPSSLSQEQSEQDAIYQNLTQLKAAVGELSEKSKLQEIYQELTQLKAAVGELPEKSKLQEIYQELTRLKAAVGELPEKSKLQEIYQELTRLKAAVGELPEKSKLQEIYQELTRLKAAVGELPEKSKLQEIYQELTELKAAVGELPEKSKLQEIYQELTQLKAAVGELPDQSKQQQIYQELTDLKTAFERLCRHCPKDWTFFQGNCYFMSNSQRNWHDSVTACQEVRAQLVVIKTAEEQNFLQLQTSRSNRFSWMGLSDLNQEGTWQWVDGSPLSPSFQRYWNSGEPNNSGNEDCAEFSGSGWNDNRCDVDNYWICKKPAACFRDE
# Tests used:
# Test in all cases: glycan array binding signal (z-score within array); higher = stronger binding
# Settings in all cases: glycan notation: IUPAC condensed, linker removed
# Kdn(a2-3)Gal(b1-3)GlcNAc = molecular target: Kdn(a2-3)Gal(b1-3)GlcNAc
# Outline: (§1)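 The Consortium for Functional Glycomics database supplied 3228 glycan arrays, of which those lacking an available protein sequence were dropped. The binding signal, a within-array Z-score, was averaged across arrays of the same protein sequence and across linkers. Negative scores can be read as non-binding.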
# Kdn(a2-3)Gal(b1-4)Glc = molecular target: Kdn(a2-3)Gal(b1-4)Glc
# Outline: as §1
# Kdn(a2-3)Gal(b1-4)GlcNAc = molecular target: Kdn(a2-3)Gal(b1-4)GlcNAc
# Outline: as §1
# [1] = molecular target: Kdn(a2-3)Gal(b1-4)[Fuc(a1-3)]GlcNAc
# Outline: as §1
# Kdn(a2-6)Gal(b1-4)GlcNAc = molecular target: Kdn(a2-6)Gal(b1-4)GlcNAc
# Outline: as §1
# [2] = molecular target: Man(a1-2)Man(a1-2)Man(a1-3)Man
# Outline: as §1
# [3] = molecular target: Man(a1-2)Man(a1-2)Man(a1-6)[Man(a1-3)]Man
# Outline: as §1
# Man(a1-2)Man(a1-3)Man = molecular target: Man(a1-2)Man(a1-3)Man
# Outline: as §1
# [4] = molecular target: Man(a1-2)Man(a1-3)[Man(a1-2)Man(a1-6)]Man
# Outline: as §1
# [5] = molecular target: Man(a1-2)Man(a1-3)[Man(a1-2)Man(a1-6)]Man(a1-6)[Man(a1-2)Man(a1-2)Man(a1-3)]Man
# Outline: as §1
# [6] = molecular target: Man(a1-2)Man(a1-3)[Man(a1-2)Man(a1-6)]Man(a1-6)[Man(a1-2)Man(a1-2)Man(a1-3)]Man(b1-4)GlcNAc(b1-4)GlcNAc
# Outline: as §1
# [7] = molecular target: Man(a1-2)Man(a1-3)[Man(a1-6)]Man(a1-6)[Man(a1-2)Man(a1-3)]Man(b1-4)GlcNAc(b1-4)GlcNAc
# Outline: as §1
# [8] = molecular target: Man(a1-2)Man(a1-6)[Man(a1-3)]Man(a1-6)[Man(a1-2)Man(a1-2)Man(a1-3)]Man
# Outline: as §1
# [9] = molecular target: Man(a1-2)Man(a1-6)[Man(a1-3)]Man(a1-6)[Man(a1-2)Man(a1-2)Man(a1-3)]Man(b1-4)GlcNAc(b1-4)GlcNAc
# Outline: as §1
# Man(a1-3)[Man(a1-6)]Man = molecular target: Man(a1-3)[Man(a1-6)]Man
# Outline: as §1
# [10] = molecular target: Man(a1-3)[Man(a1-6)]Man(a1-6)[Man(a1-2)Man(a1-3)]Man(b1-4)GlcNAc(b1-4)GlcNAc
# Outline: as §1
# [11] = molecular target: Man(a1-3)[Man(a1-6)]Man(a1-6)[Man(a1-3)]Man
# Outline: as §1
# [12] = molecular target: Man(a1-3)[Man(a1-6)]Man(a1-6)[Man(a1-3)]Man(b1-4)GlcNAc(b1-4)GlcNAc
# Outline: as §1
# [13] = molecular target: Man(a1-3)[Man(a1-6)]Man(b1-4)GlcNAc(b1-4)GlcNAc
# Outline: as §1
# [14] = molecular target: Man(a1-3)[Man(a1-6)]Man(b1-4)GlcNAc(b1-4)[Fuc(a1-6)]GlcNAc
# Outline: as §1
# Man(a1-6)Man = molecular target: Man(a1-6)Man
# Outline: as §1
# Man(b1-4)GlcNAc = molecular target: Man(b1-4)GlcNAc
# Outline: as §1
# MurNAc(b1-4)GlcNAc = molecular target: MurNAc(b1-4)GlcNAc
# Outline: as §1
# Neu5Ac(a2-3)Gal = molecular target: Neu5Ac(a2-3)Gal
# Outline: as §1
# [15] = molecular target: Neu5Ac(a2-3)Gal(b1-3)GalNAc
# Outline: as §1
# [16] = molecular target: Neu5Ac(a2-3)Gal(b1-3)GalNAc(b1-3)Gal(a1-4)Gal(b1-4)Glc
# Outline: as §1
# [17] = molecular target: Neu5Ac(a2-3)Gal(b1-3)GalNAc(b1-4)[Neu5Ac(a2-3)]Gal(b1-4)Glc
# Outline: as §1
# [18] = molecular target: Neu5Ac(a2-3)Gal(b1-3)GalNAc(b1-4)[Neu5Ac(a2-8)Neu5Ac(a2-3)]Gal(b1-4)Glc
# Outline: as §1
# [19] = molecular target: Neu5Ac(a2-3)Gal(b1-3)GalNAc6S
# Outline: as §1
# [20] = molecular target: Neu5Ac(a2-3)Gal(b1-3)GlcNAc
# Outline: as §1
# [21] = molecular target: Neu5Ac(a2-3)Gal(b1-3)GlcNAc(b1-2)Man
# Outline: as §1
# [22] = molecular target: Neu5Ac(a2-3)Gal(b1-3)GlcNAc(b1-2)Man(a1-3)[GlcNAc(b1-4)][Neu5Ac(a2-3)Gal(b1-3)GlcNAc(b1-2)Man(a1-6)]Man(b1-4)GlcNAc(b1-4)GlcNAc
# Outline: as §1
# [23] = molecular target: Neu5Ac(a2-3)Gal(b1-3)GlcNAc(b1-2)Man(a1-3)[Neu5Ac(a2-3)Gal(b1-3)GlcNAc(b1-2)Man(a1-6)]Man(b1-4)GlcNAc(b1-4)GlcNAc
# Outline: as §1
# [24] = molecular target: Neu5Ac(a2-3)Gal(b1-3)GlcNAc(b1-3)Gal(b1-3)GlcNAc
# Outline: as §1
# [25] = molecular target: Neu5Ac(a2-3)Gal(b1-3)GlcNAc(b1-3)Gal(b1-4)GlcNAc
# Outline: as §1
# [26] = molecular target: Neu5Ac(a2-3)Gal(b1-3)GlcNAc(b1-3)GalNAc
# Outline: as §1
# [27] = molecular target: Neu5Ac(a2-3)Gal(b1-3)GlcNAc(b1-4)Gal(b1-4)Glc
# Outline: as §1
# [28] = molecular target: Neu5Ac(a2-3)Gal(b1-3)GlcNAc(b1-6)GalNAc
# Outline: as §1
binder,measurement,setting,value
B1,glycan array binding signal (z-score),Kdn(a2-3)Gal(b1-3)GlcNAc,-0.743
same,glycan array binding signal (z-score),Kdn(a2-3)Gal(b1-4)Glc,-0.801
same,glycan array binding signal (z-score),Kdn(a2-3)Gal(b1-4)GlcNAc,-0.781
same,glycan array binding signal (z-score),[1],-0.014
same,glycan array binding signal (z-score),Kdn(a2-6)Gal(b1-4)GlcNAc,-0.396
same,glycan array binding signal (z-score),[2],0.276
same,glycan array binding signal (z-score),[3],0.786
same,glycan array binding signal (z-score),Man(a1-2)Man(a1-3)Man,-0.383
same,glycan array binding signal (z-score),[4],-0.087
same,glycan array binding signal (z-score),[5],1.47
same,glycan array binding signal (z-score),[6],0.241
same,glycan array binding signal (z-score),[7],0.062
same,glycan array binding signal (z-score),[8],0.308
same,glycan array binding signal (z-score),[9],-0.019
same,glycan array binding signal (z-score),Man(a1-3)[Man(a1-6)]Man,-0.857
same,glycan array binding signal (z-score),[10],0.778
same,glycan array binding signal (z-score),[11],-0.538
same,glycan array binding signal (z-score),[12],-0.367
same,glycan array binding signal (z-score),[13],0.143
same,glycan array binding signal (z-score),[14],1.48
same,glycan array binding signal (z-score),Man(a1-6)Man,-0.63
same,glycan array binding signal (z-score),Man(b1-4)GlcNAc,-0.549
same,glycan array binding signal (z-score),MurNAc(b1-4)GlcNAc,0.448
same,glycan array binding signal (z-score),Neu5Ac(a2-3)Gal,-0.528
same,glycan array binding signal (z-score),[15],-0.721
same,glycan array binding signal (z-score),[16],0.241
same,glycan array binding signal (z-score),[17],-0.595
same,glycan array binding signal (z-score),[18],0.106
same,glycan array binding signal (z-score),[19],0.975
same,glycan array binding signal (z-score),[20],-0.608
same,glycan array binding signal (z-score),[21],0.07
same,glycan array binding signal (z-score),[22],1.2
same,glycan array binding signal (z-score),[23],-0.611
same,glycan array binding signal (z-score),[24],-0.501
same,glycan array binding signal (z-score),[25],-0.77
same,glycan array binding signal (z-score),[26],-0.193
same,glycan array binding signal (z-score),[27],0.657
same,glycan array binding signal (z-score),[28],-0.39

# Another view of some results above:
binder	measurement	setting	value
B1	glycan array binding signal (z-score)	Kdn(a2-3)Gal(b1-4)GlcNAc	-0.781
same	glycan array binding signal (z-score)	[7]	0.062

# — the supplement of paper PMC8728848
